This passage reports binding results from PMC12302537.

Chains of the proteins cited; added tags and fusions are not shown.
UniProt P97313: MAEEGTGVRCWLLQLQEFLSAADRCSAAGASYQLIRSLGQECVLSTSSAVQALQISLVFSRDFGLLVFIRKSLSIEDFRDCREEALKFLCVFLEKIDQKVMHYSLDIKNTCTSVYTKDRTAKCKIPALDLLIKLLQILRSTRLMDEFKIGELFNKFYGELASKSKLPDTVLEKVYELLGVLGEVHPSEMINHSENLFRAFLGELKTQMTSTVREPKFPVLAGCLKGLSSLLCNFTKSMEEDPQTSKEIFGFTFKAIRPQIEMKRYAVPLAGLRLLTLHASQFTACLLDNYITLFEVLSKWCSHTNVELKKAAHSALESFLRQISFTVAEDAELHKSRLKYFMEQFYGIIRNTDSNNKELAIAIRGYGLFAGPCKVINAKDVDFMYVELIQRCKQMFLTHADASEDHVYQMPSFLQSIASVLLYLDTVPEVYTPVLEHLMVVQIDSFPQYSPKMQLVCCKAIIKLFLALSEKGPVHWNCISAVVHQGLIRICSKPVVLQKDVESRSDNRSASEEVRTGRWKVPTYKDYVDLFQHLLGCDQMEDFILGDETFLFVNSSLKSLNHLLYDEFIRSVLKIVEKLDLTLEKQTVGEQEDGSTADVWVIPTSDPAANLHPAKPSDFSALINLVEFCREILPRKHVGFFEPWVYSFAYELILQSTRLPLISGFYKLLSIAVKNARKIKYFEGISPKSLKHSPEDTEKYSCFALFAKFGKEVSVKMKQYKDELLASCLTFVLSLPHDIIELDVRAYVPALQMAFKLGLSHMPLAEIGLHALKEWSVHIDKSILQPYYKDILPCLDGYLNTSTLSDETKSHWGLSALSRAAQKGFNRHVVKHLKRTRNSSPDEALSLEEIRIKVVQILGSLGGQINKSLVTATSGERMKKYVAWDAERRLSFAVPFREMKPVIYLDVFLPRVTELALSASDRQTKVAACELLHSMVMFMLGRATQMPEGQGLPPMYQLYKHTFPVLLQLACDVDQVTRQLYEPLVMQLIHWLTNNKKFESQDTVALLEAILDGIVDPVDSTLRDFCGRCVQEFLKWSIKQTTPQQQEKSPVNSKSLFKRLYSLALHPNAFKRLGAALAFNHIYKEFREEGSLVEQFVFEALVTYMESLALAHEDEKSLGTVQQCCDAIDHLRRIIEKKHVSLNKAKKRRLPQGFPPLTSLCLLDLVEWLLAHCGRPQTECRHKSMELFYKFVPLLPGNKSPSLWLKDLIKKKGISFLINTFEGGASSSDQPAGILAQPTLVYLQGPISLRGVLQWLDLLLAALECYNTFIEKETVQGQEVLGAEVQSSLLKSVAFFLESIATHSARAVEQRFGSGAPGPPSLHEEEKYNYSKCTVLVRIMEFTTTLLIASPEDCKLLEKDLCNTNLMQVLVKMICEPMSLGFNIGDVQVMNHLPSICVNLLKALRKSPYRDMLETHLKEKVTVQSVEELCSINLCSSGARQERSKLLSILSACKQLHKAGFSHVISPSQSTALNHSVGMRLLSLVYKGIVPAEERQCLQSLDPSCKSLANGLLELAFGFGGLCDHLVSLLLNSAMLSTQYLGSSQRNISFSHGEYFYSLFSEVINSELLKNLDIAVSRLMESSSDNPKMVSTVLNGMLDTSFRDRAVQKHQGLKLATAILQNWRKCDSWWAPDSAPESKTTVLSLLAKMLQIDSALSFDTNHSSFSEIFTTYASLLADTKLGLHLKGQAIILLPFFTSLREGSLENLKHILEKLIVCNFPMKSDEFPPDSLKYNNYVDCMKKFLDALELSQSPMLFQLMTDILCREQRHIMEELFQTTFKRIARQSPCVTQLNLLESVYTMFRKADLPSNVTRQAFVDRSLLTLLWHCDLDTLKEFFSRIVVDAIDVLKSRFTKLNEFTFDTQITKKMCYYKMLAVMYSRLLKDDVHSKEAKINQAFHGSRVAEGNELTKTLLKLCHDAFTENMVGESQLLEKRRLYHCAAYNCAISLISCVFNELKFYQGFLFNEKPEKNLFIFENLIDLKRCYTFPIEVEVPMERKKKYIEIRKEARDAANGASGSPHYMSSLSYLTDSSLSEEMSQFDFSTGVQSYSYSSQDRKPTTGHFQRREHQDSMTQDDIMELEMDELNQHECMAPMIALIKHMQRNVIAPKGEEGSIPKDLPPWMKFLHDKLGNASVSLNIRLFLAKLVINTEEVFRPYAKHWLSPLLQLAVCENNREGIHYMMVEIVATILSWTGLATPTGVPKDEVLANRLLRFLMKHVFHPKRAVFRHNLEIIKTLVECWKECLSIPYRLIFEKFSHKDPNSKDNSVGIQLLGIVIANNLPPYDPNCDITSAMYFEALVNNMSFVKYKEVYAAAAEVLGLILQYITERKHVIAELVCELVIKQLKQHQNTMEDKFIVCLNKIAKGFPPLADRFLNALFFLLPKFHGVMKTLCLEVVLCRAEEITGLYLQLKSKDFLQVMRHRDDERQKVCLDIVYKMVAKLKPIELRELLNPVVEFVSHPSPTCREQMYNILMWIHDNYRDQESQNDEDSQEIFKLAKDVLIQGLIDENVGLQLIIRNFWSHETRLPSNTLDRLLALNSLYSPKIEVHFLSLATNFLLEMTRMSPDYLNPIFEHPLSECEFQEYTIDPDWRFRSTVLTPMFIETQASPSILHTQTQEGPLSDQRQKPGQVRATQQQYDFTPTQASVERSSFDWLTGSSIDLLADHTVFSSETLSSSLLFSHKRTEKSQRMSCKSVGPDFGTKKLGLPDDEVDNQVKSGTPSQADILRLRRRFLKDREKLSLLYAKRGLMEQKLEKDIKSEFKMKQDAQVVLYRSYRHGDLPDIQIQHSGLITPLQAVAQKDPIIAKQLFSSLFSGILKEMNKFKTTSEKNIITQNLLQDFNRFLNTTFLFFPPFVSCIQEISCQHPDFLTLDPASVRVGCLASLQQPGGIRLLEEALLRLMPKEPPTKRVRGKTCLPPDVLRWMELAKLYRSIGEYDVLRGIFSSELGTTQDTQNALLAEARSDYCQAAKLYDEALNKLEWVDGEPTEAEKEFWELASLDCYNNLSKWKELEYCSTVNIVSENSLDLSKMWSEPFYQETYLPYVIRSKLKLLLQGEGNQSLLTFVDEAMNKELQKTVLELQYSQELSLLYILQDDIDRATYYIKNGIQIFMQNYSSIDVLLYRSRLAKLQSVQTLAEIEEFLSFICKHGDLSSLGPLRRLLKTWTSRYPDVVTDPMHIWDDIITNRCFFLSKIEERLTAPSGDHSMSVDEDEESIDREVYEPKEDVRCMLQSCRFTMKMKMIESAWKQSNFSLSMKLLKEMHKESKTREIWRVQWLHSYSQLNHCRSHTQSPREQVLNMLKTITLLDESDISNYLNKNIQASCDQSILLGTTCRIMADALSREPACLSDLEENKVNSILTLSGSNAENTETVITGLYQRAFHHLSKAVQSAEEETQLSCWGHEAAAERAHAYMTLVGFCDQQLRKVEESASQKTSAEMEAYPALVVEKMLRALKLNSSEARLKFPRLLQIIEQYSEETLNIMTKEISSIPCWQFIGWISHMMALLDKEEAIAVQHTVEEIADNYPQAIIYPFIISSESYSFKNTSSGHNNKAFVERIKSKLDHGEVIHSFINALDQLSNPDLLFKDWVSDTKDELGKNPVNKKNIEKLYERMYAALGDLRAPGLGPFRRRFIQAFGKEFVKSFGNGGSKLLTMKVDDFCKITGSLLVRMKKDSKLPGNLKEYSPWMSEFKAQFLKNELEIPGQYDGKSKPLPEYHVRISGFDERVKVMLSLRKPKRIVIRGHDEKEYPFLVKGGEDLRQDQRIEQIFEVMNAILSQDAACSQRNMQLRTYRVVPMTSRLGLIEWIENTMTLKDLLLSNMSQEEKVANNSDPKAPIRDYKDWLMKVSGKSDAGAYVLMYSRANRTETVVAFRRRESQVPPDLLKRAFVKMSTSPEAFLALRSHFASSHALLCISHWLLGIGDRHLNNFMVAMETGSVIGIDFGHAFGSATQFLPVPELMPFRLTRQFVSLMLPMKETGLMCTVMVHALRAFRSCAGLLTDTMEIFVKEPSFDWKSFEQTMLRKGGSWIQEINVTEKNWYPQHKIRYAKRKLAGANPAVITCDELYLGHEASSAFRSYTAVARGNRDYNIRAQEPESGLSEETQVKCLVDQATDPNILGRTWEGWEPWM
UniProt P46938: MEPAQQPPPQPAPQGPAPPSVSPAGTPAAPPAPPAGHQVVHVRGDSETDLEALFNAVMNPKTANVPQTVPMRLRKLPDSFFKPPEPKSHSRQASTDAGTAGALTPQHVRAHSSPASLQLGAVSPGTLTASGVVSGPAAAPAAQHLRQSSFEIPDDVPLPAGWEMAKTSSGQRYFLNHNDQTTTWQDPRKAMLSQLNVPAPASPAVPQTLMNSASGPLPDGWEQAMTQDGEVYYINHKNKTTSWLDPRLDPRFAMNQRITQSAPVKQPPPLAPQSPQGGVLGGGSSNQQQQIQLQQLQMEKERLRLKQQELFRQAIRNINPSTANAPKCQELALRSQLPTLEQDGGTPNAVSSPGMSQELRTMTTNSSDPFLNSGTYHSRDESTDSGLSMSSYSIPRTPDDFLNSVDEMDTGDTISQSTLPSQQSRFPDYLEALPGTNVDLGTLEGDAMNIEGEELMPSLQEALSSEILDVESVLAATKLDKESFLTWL

This experiment has as its target DNA‐Dependent Protein Kinase catalytic subunit (DNA‐PKcs) (mouse (endogenous in heart tissue)) (UniProt P97313). As to the kind of experiment: affinity purification with mass spectrometry; Co-IP-based proteomics: DNA-PKcs immunoprecipitated with antibody on Protein A/G magnetic beads, lysate in RIPA buffer, 4 °C overnight, washed three times with ice-cold PBS; IgG as negative control.

No constants are given. Whether binding was seen depends on the method and setting. Binding seen in cells or lysates may run through a third protein. A yes stands for co-enrichment or nearness to the bait. Other partners may have been found.

In the case of “Yes‐Associated Protein 1 (YAP1) (from UniProt P46938 1-488)”, the binding entry is recorded as “binds”.
